Results as given in the supplement of paper PMC8104966.
Some of the results follow. Single values are uncertain here, since repeats match poorly.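 U2OS cells expressing ACE2 were combined with U2OS cells expressing full-length spike, and imaging quantified fusion as the fraction of nuclei displaying both cell types' fluorescent markers. Non-toxic compounds with a fusion z-score under -3, i.e., over three standard deviations below the plate's DMSO wells, are called inhibitory hits.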

Each molecule was assayed on U2OS ACE2 x SARS-CoV-2 spike co-culture (assay: cell-cell fusion (fraction fused) z-score vs plate DMSO control; higher = more fusion). Details: 30 µM; 5 h; toxicity class: non-toxic, passed QC.

Row | Structure (SMILES) | cell-cell fusion (z-score)
1 | CCN(CC)CCNC(=O)c1cc(Cl)c(N)cc1OC [5-Chloro-2-methoxyprocainamide] | inactive: 3.48
2 | CCOc1ccc2ccccc2c1C(=O)N[C@@H]1C(=O)N2[C@@H]1SC(C)(C)[C@@H]2C(=O)[O-].O.[Na+] [nafcillin sodium] | inactive: 1.93
3 | CC(C)(CO)C(O)C(=O)NCCCO (stereo unspecified) [Panthenol] | inactive: 1.48
4 | CC(C)(CO)C(O)C(=O)NCCCO (stereo unspecified) | inactive: 1.91
5 | Cn1cnc2c1c(=O)[nH]c(=O)n2C [Theobromine] | inactive: 2.34
6 | CCc1cncnc1N1CCN(Cc2nc3cc(C(F)(F)F)ccc3[nH]2)CC1 | inactive: -0.5
7 | CCCSc1nc(N[C@@H]2C[C@H]2c2ccc(F)c(F)c2)c2nnn([C@@H]3C[C@H](OCCO)[C@@H](O)[C@H]3O)c2n1 [Ticagrelor] | active: -16
8 | COc1cc(OC)c2c(=O)cc(-c3ccccc3)oc2c1 | inactive: 1.63
9 | O=C(O)[C@H](O)[C@@H](O)C(=O)O.c1cnc2cc3c(cc2n1)C1CNCC3C1 [Varenicline tartrate] | inactive: 2.21
10 | O=C(O)/C=C/C(=O)O.O=C(O)/C=C/C(=O)O.O=C(O)/C=C/C(=O)O.O=C1CCCN1CC#CCN1CCCC1.O=C1CCCN1CC#CCN1CCCC1 [Oxotremorine sesquifumarate salt] | inactive: 1.99
11 | COc1cc2c(c(OC)c1OC)-c1ccc(OC)c(=O)cc1[C@@H](NC(C)=O)CC2 | inactive: -2.82
12 | CNC(=NC#N)NCCSCc1nc[nH]c1C [Cimetidine] | inactive: 2.65
13 | CC(C)C[C@H]1C(=O)N2CCC[C@H]2[C@]2(O)O[C@](NC(=O)[C@@H]3C=C4c5cccc6[nH]c(Br)c(c56)C[C@H]4N(C)C3)(C(C)C)C(=O)N12.CS(=O)(=O)O [(+)-Bromocriptine methanesulfonate] | inactive: 3.01
14 | CC(C)c1c(C(=O)Nc2ccccc2)c(-c2ccccc2)c(-c2ccc(F)cc2)n1CC[C@@H](O)C[C@@H](O)CC(=O)[O-].CC(C)c1c(C(=O)Nc2ccccc2)c(-c2ccccc2)c(-c2ccc(F)cc2)n1CC[C@@H](O)C[C@@H](O)CC(=O)[O-].O.O.O.[Ca+2] [Atorvastatin calcium salt trihydrate.] | inactive: 1.29
15 | CC(C(=O)O)c1cccc(C(=O)c2ccccc2)c1 (stereo unspecified) | inactive: 2.17
16 | C#C[C@]1(O)CCC2C3CCC4=Cc5oncc5C[C@]4(C)C3CC[C@@]21C (stereo partly specified) | inactive: 0.527

Reformatted: entries from further up.
Row,Structure (SMILES),cell-cell fusion (z-score)
13,CC(C)C[C@H]1C(=O)N2CCC[C@H]2[C@]2(O)O[C@](NC(=O)[C@@H]3C=C4c5cccc6[nH]c(Br)c(c56)C[C@H]4N(C)C3)(C(C)C)C(=O)N12.CS(=O)(=O)O [(+)-Bromocriptine methanesulfonate],inactive: 3.01
14,CC(C)c1c(C(=O)Nc2ccccc2)c(-c2ccccc2)c(-c2ccc(F)cc2)n1CC[C@@H](O)C[C@@H](O)CC(=O)[O-].CC(C)c1c(C(=O)Nc2ccccc2)c(-c2ccccc2)c(-c2ccc(F)cc2)n1CC[C@@H](O)C[C@@H](O)CC(=O)[O-].O.O.O.[Ca+2] [Atorvastatin calcium salt trihydrate.],inactive: 1.29
